The list is a part of this screen's results and no random one: it is rich in T/C values a quarter to a half above the control, in often repeated tests (any T/C) and in doses without a T/C. Other doses and runs of a compound stand elsewhere. T/C gives the treated animals as a percentage of the vehicle group. Some doses have a count of surviving animals in place of a T/C: the source files T/C as zero there, which appears to mark a toxic dose or a test without result, not a measured value. Some survivor counts are full or nearly so, which does not show that the dose was tolerated: survival well below the control is almost never listed, so the zero probably covers shortened survival too. Survivors were counted at the toxicity check, usually on the fifth day, unless a day is given; later deaths do not show. Schedule codes are those of the source, taken here to give the interval after Q, in days (D) or hours (H), and the number of doses after X.

This assay relates to L1210 leukemia ip in BDF1 mice, survival T/C. Description: NCI In Vivo Anticancer Drug Screen. Data for tumor model L1210 Leukemia (intraperitoneal) in B6D2F1 (BDF1) mice. Conditions: T/C endpoint: mean survival time, higher T/C = longer survival.

As to `Cc1ccc2c(Cl)ccc(Cl)c2n1`, the survivor count (dose: 400.0 mg/kg/injection, schedule: Q04DX002 (ip), vehicle: carboxymethylcellulose (CMC)) was 0 of 3 and the survivor count (dose: 400.0 mg/kg/injection, schedule: Q04DX003 (ip), vehicle: carboxymethylcellulose (CMC)) was 0 of 6.
As for `Cc1ccc(C(=O)N/N=C/C(CC(O)C(O)CO)=N/NC(=O)c2ccc(C)cc2)cc1` (centres undefined), for the setting “dose: 400.0 mg/kg/injection, schedule: Q04DX003 (ip), vehicle: alcohol”, the survivor count was 5 of 6.
For the molecule `CCCCCCCCCCCCCCCCCC1=NCC[N+]1(CCO)Cc1ccccc1` (centres undefined) (tested in a mixture with another compound), the survivor count is, setting by setting: (dose: 50.0 mg/kg/injection, schedule: Q04DX003 (ip), vehicle: saline with Tween-80) 2 of 6; (dose: 100.0 mg/kg/injection, schedule: Q04DX003 (ip), vehicle: saline with Tween-80) 0 of 6; (dose: 200.0 mg/kg/injection, schedule: Q04DX003 (ip), vehicle: saline with Tween-80) 0 of 6; (dose: 400.0 mg/kg/injection, schedule: Q04DX003 (ip), vehicle: saline with Tween-80) 0 of 6.
As to `CC(=O)CCC(C#N)c1ccccc1` (centres undefined), the survivor count (dose: 200.0 mg/kg/injection, schedule: Q04DX002 (ip), vehicle: saline) is listed as 0 of 3 and the survivor count (dose: 400.0 mg/kg/injection, schedule: Q04DX002 (ip), vehicle: saline) was 1 of 3.

The values are drawn from PubChem BioAssay AID248 (DTP/NCI, 2004).
